Assay results from paper doi:10.1101/2021.06.15.448540.
Positions count from the first letter of the chain named. No constants are given. Whether binding was seen depends on the method and setting. Some results given as binding are weak or reduced against the parent protein; the word gives no strength.

Key:
Assay in all cases: MST
[1] = target: T1, FhuCB subcomplex (wild type; membrane subunit FhuB and ATPase FhuC) (Escherichia coli) (UniProt P07821+P06972)
T1 sequence (chain, His-tag labeled with the red-tris-NTA 2nd generation dye (in the MST)) 1: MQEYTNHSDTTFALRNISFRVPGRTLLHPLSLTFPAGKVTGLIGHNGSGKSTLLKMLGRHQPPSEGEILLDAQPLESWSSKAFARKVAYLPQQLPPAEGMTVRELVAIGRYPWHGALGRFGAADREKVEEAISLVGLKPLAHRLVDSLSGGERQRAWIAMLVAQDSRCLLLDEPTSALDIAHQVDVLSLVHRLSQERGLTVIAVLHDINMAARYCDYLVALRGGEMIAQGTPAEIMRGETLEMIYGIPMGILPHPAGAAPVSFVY
T1 sequence (chain, His-tag labeled with the red-tris-NTA 2nd generation dye (in the MST)) 2: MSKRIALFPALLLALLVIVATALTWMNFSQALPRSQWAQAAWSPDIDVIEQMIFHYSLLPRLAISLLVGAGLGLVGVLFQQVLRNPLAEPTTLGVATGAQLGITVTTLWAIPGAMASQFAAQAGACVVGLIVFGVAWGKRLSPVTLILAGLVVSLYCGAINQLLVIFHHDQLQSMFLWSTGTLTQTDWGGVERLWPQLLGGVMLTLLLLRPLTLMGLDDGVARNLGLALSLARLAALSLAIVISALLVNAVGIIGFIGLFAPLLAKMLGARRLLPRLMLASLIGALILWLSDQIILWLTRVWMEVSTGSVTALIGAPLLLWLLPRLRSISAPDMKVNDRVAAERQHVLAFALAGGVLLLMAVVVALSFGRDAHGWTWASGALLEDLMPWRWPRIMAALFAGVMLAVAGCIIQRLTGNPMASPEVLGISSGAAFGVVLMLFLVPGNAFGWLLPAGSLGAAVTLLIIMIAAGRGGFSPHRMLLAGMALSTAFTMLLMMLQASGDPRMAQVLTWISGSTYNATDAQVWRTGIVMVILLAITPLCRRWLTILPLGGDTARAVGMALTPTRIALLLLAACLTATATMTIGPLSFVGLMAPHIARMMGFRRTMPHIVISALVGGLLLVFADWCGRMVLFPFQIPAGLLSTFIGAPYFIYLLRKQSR

[2] = target: T2, FhuCB with FhuB Q507 and T510 mutated to Ala (Escherichia coli) (UniProt P07821+P06972)
T2 sequence (chain, His-tag labeled with the red-tris-NTA 2nd generation dye (in the MST)) 1: T1 sequence (chain, His-tag labeled with the red-tris-NTA 2nd generation dye (in the MST)) 1
T2 sequence (chain, His-tag labeled with the red-tris-NTA 2nd generation dye (in the MST)) 2: T1 sequence (chain, His-tag labeled with the red-tris-NTA 2nd generation dye (in the MST)) 2 with Q507A, T510A

[3] = target: T3, FhuCB with FhuB R390 mutated to Ala (Escherichia coli) (UniProt P07821+P06972)
T3 sequence (chain, His-tag labeled with the red-tris-NTA 2nd generation dye (in the MST)) 1: T1 sequence (chain, His-tag labeled with the red-tris-NTA 2nd generation dye (in the MST)) 1
T3 sequence (chain, His-tag labeled with the red-tris-NTA 2nd generation dye (in the MST)) 2: T1 sequence (chain, His-tag labeled with the red-tris-NTA 2nd generation dye (in the MST)) 2 with R390A

binding [1]: binds
binding [2]: binds
binding [3]: binds
B1: FhuD (separately expressed periplasmic substrate-binding protein) (protein, UniProt P07822 31-296)
chain: AAIDPNRIVALEWLPVELLLALGIVPYGVADTINYRLWVSEPPLPDSVIDVGLRTEPNLELLTEMKPSFMVWSAGYGPSPEMLARIAPGRGFNFSDGKQPLAMARKSLTEMADLLNLQSAAETHLAQYEDFIRSMKPRFVKRGARPLLLTTLIDPRHMLVFGPNSLFQEILDEYGIPNAWQGETNFWGSTAVSIDRLAAYKDVDVLCFDHDNSKDMDALMATPLWQAMPFVRAGRFQRVPAVWFYGATLSAMHFVRVLDNAIGGKA
